Results taken from article PMC1282572, “Avidin related protein 2 shows unique structural and functional features among the avidin protein family” (BMC Biotechnology, 2005).
No constants are given. Whether binding was seen depends on the method and setting. Some entries that bind do so weakly or less than the wild type.

Biological target: Wild type AVR6 (chicken) (UniProt P56735)
Test: SEC; gel filtration of wild type AVR6, data not shown; oligomers of tetramers via disulphide bridges

B1: Wild type AVR6 (protein, UniProt P56735 25-150)
chain: ARKCSLTGEWDNNLGSIMTIGAVNDNGEFNGTYITAVADNPGNIKLSPLLGIQHKRACQPTFGFTVHWNFSESTSVFVGQCFVDRSGKEVLKTKWLQRLAVDDISDDWKATRVGYNNFTRQRTVEE
- binding: binds
